From PubChem BioAssay AID2685 (National Center for Advancing Translational Sciences (NCATS), 2010)
The list shows a part of the results. These are further read-outs of the screen, such as a control signal, another cell line or another target. No call is given for them. The list favours compounds with an active or inconclusive main result. Potencies come from curve fits of mixed quality, noted in brackets.

Test: qHTS Assay for Lipid Storage Modulators in Drosophila S3 Cells;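 for cell number change: cells counted by Cell Tracker Red CMTPX staining in the red channel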
Settings: BODIPY lipid droplet fluorescence, 18-24 h; for cell number change: measured here: cell count max response, cells fed with added oleic acid
Procedure, shortened: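 Drosophila S3 cells got compounds at several concentrations plus oleic acid (400 uM solution). Laser-scanning cytometry with 488 nm excitation read lipid droplets at 500-530 nm and cells at 575-640 nm. Percent activity was relative to 20 uM Triacsin C.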

[1] = measured here: cell number channel AC50, cells fed with added oleic acid
[2] = measured here: lipid fluorescence (Fed channel) AC50, cells fed with added oleic acid

Row | Compound | cell number change [%] | AC50 [1] | AC50 [2]
1 | COc1ccc(OC(=O)COc2cccc(C)c2)cc1 | -8.52 |  | 
2 | CCOc1ccc(N2CC(C(=O)NCCN3C(=O)S/C(=C/c4cccnc4)C3=O)CC2=O)cc1 (stereo not drawn) | -39.2 | 11.6 µM [falling, partial curve] | 4.11 µM [falling, partial curve]
3 | Cc1cc(C)cc(C(=O)NCC(=O)OCC(=O)N2c3ccccc3NC(=O)C2(C)C)c1 | 5.28 |  | 0.92 µM [rising, single point]
4 | CC1Cc2ccccc2N1C(=O)CO/N=C/c1ccc(OC(F)F)cc1 (stereo not drawn) | 0.689 |  | 
5 | CC(=O)N1CCN(c2ccc(Oc3ccc([N+](=O)[O-])c(C(F)(F)F)c3)cc2)CC1 | 3.23 |  | 
6 | CN1C(=O)CS(=O)c2ccc(C(=O)NCCC3=CCCCC3)cc21 (stereo not drawn) | -42 | 8.2 µM [falling, partial curve, poor fit] | 14.6 µM [falling, partial curve]
7 | Cc1ccccc1NC(=O)c1cccc(N2C(=O)C3C4CCC(C4)C3C2=O)c1 (stereo not drawn) | 18.3 |  | 3.26 µM [rising, partial curve]
8 | Clc1ccc(-n2ncc3c(NCc4ccc5c(c4)OCO5)ncnc32)cc1 | 3.24 |  | 
9 | Cc1ccc(C(=O)COC(=O)C2CC(=O)N(c3nc(-c4ccccc4)cs3)C2)cc1 (stereo not drawn) | 1.71 |  | 
10 | Fc1ccc(CN2CCSCC2)cc1Br | -19.8 |  | 
11 | CCOC(=O)C(C)Sc1nc2c(c(=O)[nH]c(=O)n2C)n1CCc1ccccc1 (stereo not drawn) | -4.7 |  | 6.51 µM [rising, single point]
12 | COc1ccc(S(=O)(=O)N(CCCN2CCCC2=O)Cc2cc3cc(C)c(C)cc3[nH]c2=O)cc1 | 68.7 | 0.326 µM [rising, full curve] | 1.46 µM [rising, partial curve]
13 | Cc1cc(S(=O)(=O)N(Cc2ccc3c(c2)OCO3)CC2CCCO2)ccc1-n1cnnn1 (stereo not drawn) |  | 1.3 µM [rising, partial curve] | 1.3 µM [rising, full curve]
14 | O=S(=O)([O-])CCC[n+]1c(/C=C\Nc2ccccc2)oc2ccc(-c3ccccc3)cc21 | -91 | 16.4 µM [falling, single point] | 
15 | Cc1ccccc1C(=O)NC1CC2CCCC(C1)N2Cc1ccccc1 (stereo not drawn) | 9.94 |  | 0.103 µM [rising, full curve, poor fit]
16 | CCN(CC)CCNC(=O)c1ccc(NC(=O)c2ccc(COc3ccccc3)cc2)cc1 | 88.1 | 29.1 µM [rising, single point] | 
17 | CN1CCN(C2=Nc3c(Cl)cc(Cl)c4cccc2c34)CC1 | -4.96 |  | 0.82 µM [rising, single point]
18 | CCOC(=O)C1(S(=O)(=O)c2ccccc2)CCN(Cc2ccc(Cl)cc2)CC1 |  | 0.0651 µM [falling, full curve, poor fit] | 
19 | CNC1(C(N)=O)CCNCC1 | -3.11 |  | 6.51 µM [falling, single point]
20 | O=C(N/C(=C\c1ccc(Cl)cc1)C(=O)N1CCCCC1)c1ccco1 | -13.2 | 0.092 µM [falling, full curve, poor fit] | 

Single records, as listed above:
CCOC(=O)C(C)Sc1nc2c(c(=O)[nH]c(=O)n2C)n1CCc1ccccc1 (stereo not drawn) is listed with cell number change [%]: -4.7; AC50 [2]: 6.51 µM [rising, single point]
Cc1ccc(C(=O)COC(=O)C2CC(=O)N(c3nc(-c4ccccc4)cs3)C2)cc1 (stereo not drawn) is listed with cell number change [%]: 1.71

(next part)

Row | Compound | cell number change [%] | AC50 [1] | AC50 [2]
21 | COc1cc(/C=N/NC(=O)c2nnn(-c3nonc3N)c2C(C)C)ccc1OCc1ccccc1 | 35.6 | 29.1 µM [rising, single point] | 
22 | CN=C(Nc1cc(C)nn1CCC#N)c1ccccc1 | 4.81 |  | 
23 | Cc1cccc(SC2CCN(C(=O)C3CCC(=O)N(C4CC4)C3)CC2)c1 (stereo not drawn) | -9.79 |  | 0.82 µM [falling, full curve, poor fit]
24 | CCCCc1ccc(NC(=O)NCc2cccnc2)cc1 | -7.8 |  | 3.66 µM [rising, single point]
25 | Cc1cc2cc(CN(CCCO)S(=O)(=O)c3cccc4nsnc34)c(=O)[nH]c2cc1C |  | 0.651 µM [falling, single point] | 0.13 µM [falling, full curve, poor fit]
26 | O=C(COc1ccc2c3c(c(=O)oc2c1)CCC3)Nc1ccc(CN2CCOCC2)cc1 | 23.3 | 4.61 µM [rising, single point] | 
27 | O=C(CNC(=O)c1sc2ccccc2c1Cl)NCc1cccnc1 |  |  | 29.1 µM [falling, single point]
28 | COc1ccc(OCC(=O)OCC(=O)Nc2ccc(S(=O)(=O)N3CCCCC3)cc2)cc1 | -24.4 |  | 3.66 µM [falling, full curve]
29 | O=C(NC(=S)NCc1ccccc1)c1ccccc1Br | 11.7 |  | 29.1 µM [falling, single point]
30 | COc1ccc(/C=C(\C#N)c2n[nH]c(Cn3cncn3)n2)cc1 | 79.4 | 16.4 µM [rising, partial curve] | 
31 | O=C(NC(C(=O)c1ccccc1)N1CCCCC1)c1ccccc1 (stereo not drawn) | 8.59 |  | 29.1 µM [rising, single point]
32 | O=C(COC(=O)CNC(=O)c1cccc(Br)c1)Nc1nnc(-c2ccccc2)o1 | 11.5 |  | 23.1 µM [rising, partial curve]
33 | Cc1c(-c2cc(Br)ccc2O)nc2cc3c(cc2c1C)OCO3 | -1.17 |  | 0.082 µM [rising, full curve, poor fit]
34 | COc1cccc(NC(=O)CN(C)C(=O)c2cc(-c3cccc(Br)c3)nc3ccccc23)c1 | 10.4 |  | 
35 | O=C(Oc1ccc(OC(=O)C2CCC2)cc1)C1CCC1 | -56.7 | 25.9 µM [falling, single point] | 4.61 µM [falling, partial curve, poor fit]
36 | COc1cc(/C=N/NC(=O)c2ccncc2)ccc1OCC(=O)Nc1cccc([N+](=O)[O-])c1 | 1.74 |  | 0.103 µM [rising, full curve, poor fit]
37 | CCN1CCN(C(CNC(=O)c2ccc3c(c2)OCO3)c2cccnc2)CC1 (stereo not drawn) | -0.711 |  | 
38 | Cc1ccc(S(=O)(=O)c2nc(-c3cccs3)oc2SCC(N)=O)cc1 | 31.6 | 4.61 µM [rising, partial curve, poor fit] | 
39 | CC(=O)Nc1cccc(NC(=O)c2cc(-c3cccnc3)nc3ccc(Cl)cc23)c1 | -63.3 | 14.6 µM [falling, partial curve] | 16.4 µM [falling, partial curve]
40 | Cc1cnc(C(=O)Nc2ccc(C(C)C)cc2)cn1 | 105 | 20.6 µM [rising, single point] | 

Individual results from the list:
In cell number change [%], COc1cc(/C=N/NC(=O)c2ccncc2)ccc1OCC(=O)Nc1cccc([N+](=O)[O-])c1 shows 1.74
In AC50 [1], COc1ccc(/C=C(\C#N)c2n[nH]c(Cn3cncn3)n2)cc1 shows 16.4 µM [rising, partial curve]

The list continues:

Row | Compound | cell number change [%] | AC50 [1] | AC50 [2]
41 | CCOc1ccc(NC(=S)NCCCN2CCOCC2)cc1 | -36.9 | 29.1 µM [falling, single point] | 23.1 µM [falling, single point]
42 | Cc1ccc(N2CCN(C(=S)c3ccc(N(C)C)cc3)CC2)cc1 |  |  | 2.59 µM [rising, partial curve]
43 | CC(C)[C@@H](N)C(=O)N/N=C/c1ccc2nccnc2c1 | 49.6 | 16.4 µM [rising, single point] | 29.1 µM [rising, single point]
44 | COc1ccc(-c2nnn(CC(=O)NCCc3ccc(OC)c(OC)c3)n2)cc1 | -46.3 | 2.06 µM [falling, full curve] | 5.8 µM [falling, partial curve]
45 | CCNc1nc(NCC)nc(SCC(C)=O)n1 | 19.1 |  | 23.1 µM [falling, single point]
46 | Cc1ccc(-n2nc3c(c2NC(=O)CC(C)C)CS(=O)(=O)C3)cc1 | -0.33 |  | 20.6 µM [rising, partial curve]
47 | CCOC(=O)c1c(C)n(CCNC(C)=O)c2ccc(OC)cc12 | 11.1 |  | 
48 | COc1ccccc1NS(=O)(=O)c1ccc(O)c(C(=O)OCC(=O)N2CCc3ccccc32)c1 | 12.3 |  | 20.6 µM [rising, partial curve]
49 | O=C(CSc1nnc(-c2ccc(OC(F)F)cc2)o1)NC(=O)NCc1ccco1 | -19.5 | 2.91 µM [falling, single point] | 4.11 µM [falling, full curve, poor fit]
50 | CCOc1ccc(CCNC(=O)COC(=O)CCc2cc(OC)c(OC)c(OC)c2)cc1OCC | -0.81 |  | 0.731 µM [falling, full curve, poor fit]
51 | COc1ccc(/C(C)=N/OCC(=O)Nc2nc3ccccc3s2)cc1OC | 8.38 |  | 
52 | CCOC(=O)[C@@H]1[C@H]2COc3cc(OC)ccc3[C@H]2N2C(=O)N(c3ccc(C(F)(F)F)cc3)C(=O)[C@@]12C | 47.9 | 8.2 µM [rising, partial curve, poor fit] | 29.1 µM [rising, single point]
53 | CCOc1ccc(/C=N/NC(=O)c2cc3c(OC)cccc3[nH]2)cc1 | -91.9 | 23.1 µM [falling, partial curve] | 18.4 µM [falling, partial curve]
54 | O=C(CN(Cc1cccs1)C(=O)CSc1nnc(COc2ccccc2)o1)NC1CCCC1 | 6.28 |  | 6.51 µM [rising, full curve]
55 | COc1ccc(CNC(=O)CCC(=O)Nc2ccc(Cl)cc2)cc1 | -8.14 |  | 
56 | CCOC(=O)C1=C(c2ccccc2)NC(SC)=C(C#N)C1c1cccnc1 (stereo not drawn) | 14.7 |  | 0.82 µM [rising, partial curve]
57 | C/C(CC1(O)C(=O)Nc2ccccc21)=N\O (stereo not drawn) |  |  | 0.651 µM [falling, single point]
58 | Cc1c(OCC(=O)NCCCN2CCCC2=O)ccc2c3c(c(=O)oc12)CCC3 | -12.7 |  | 
59 | CCOC(=O)c1ccc(NC(=O)CSc2nnc(CNc3ccc(OC)cc3)n2C)cc1 | -15.5 |  | 
60 | Cc1cccc(OC(C)C(=O)Nc2nc(-c3ccncc3)cs2)c1 (stereo not drawn) | 83.1 | 8.2 µM [rising, partial curve] | 
